PubChem BioAssay AID493246 – Drosophila RNAi Screening Center | 2011

Test: 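Identify essential fly genes by loss of cell viability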 (primary screen)
System: Drosophila Kc and S2R+ cells
Knock-down reagent: long dsRNA against Drosophila genes
Read-out: 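Cell number per well after knock-down, printed as raw plate values; calls were based on per-plate z-scores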
Direction: Kc cell number and S2R+ cell number: higher = more cells remaining
Hit rule: 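Active when the per-plate z-score of cell number is 3 or more in the direction of fewer cells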
The deposit covers about 21,000 reagents; shown is an unselected part of those that have a named target and a result. Of all reagents, 429 (2%) are marked active. 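Values are raw and not normalised between plates; calls rest on per-plate z-scores that were not deposited.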 A plus sign joins genes that one reagent is predicted to hit. Not given: the amount of reagent, the time to read-out.

gene knocked down | DRSC id | Kc cell number, rep 1 | Kc cell number, rep 2 | S2R+ cell number, rep 1 | S2R+ cell number, rep 2 | Outcome
CG12011 | DRSC08219 | 1.36e6 | 5.88e5 | 1.08e6 | 1.20e6 | inactive
CG31345 | DRSC14193 | 1.82e6 | 1.95e6 | 1.37e6 | 1.48e6 | inactive
CG31345 | DRSC14847 | 1.87e6 | 1.92e6 | 1.36e6 | 1.46e6 | inactive
CG34136 | DRSC01833 | 5.32e5 | – | 8.68e5 | – | inactive
fuss | DRSC17200 | 1.55e6 | 1.59e6 | 1.07e6 | 1.18e6 | inactive
CG16964 | DRSC02546 | 1.63e6 | 1.66e6 | 1.27e6 | 1.46e6 | inactive
Trpml + CG42638 | DRSC11032 | 1.45e6 | 1.55e6 | 1.08e6 | 1.10e6 | inactive
Eb1 | DRSC05016 | 1.62e6 | 1.62e6 | 1.34e6 | 1.22e6 | inactive
CG10669 | DRSC14261 | 1.88e6 | 1.86e6 | 1.05e6 | 1.15e6 | inactive
par-6 | DRSC20359 | 1.31e6 | 1.36e6 | 1.02e6 | 1.13e6 | inactive
MED19 | DRSC10516 | 1.33e6 | 1.48e6 | 9.59e5 | 9.98e5 | inactive
CG14313 | DRSC14792 | 1.27e6 | 1.37e6 | 1.05e6 | 1.10e6 | inactive
CG31274 + MESK4 | DRSC13202 | 1.60e6 | 1.77e6 | 1.15e6 | 1.30e6 | inactive
gbb | DRSC04687 | 1.59e6 | 1.66e6 | 1.26e6 | 1.41e6 | inactive
Grip128 | DRSC20167 | 5.60e5 | – | 8.69e5 | – | inactive
SNRPG | DRSC20207 | 1.48e6 | 1.56e6 | 7.69e5 | 9.08e5 | inactive
CG1529 | DRSC20515 | 1.30e6 | 1.24e6 | 9.73e5 | 1.13e6 | inactive
SLC5A11 | DRSC03088 | 1.33e6 | 1.31e6 | 6.37e5 | 8.81e5 | inactive
blanks | DRSC09757 | 1.37e6 | 1.37e6 | 1.25e6 | 1.28e6 | inactive
onecut | DRSC17175 | 1.59e6 | 1.67e6 | 1.06e6 | 1.12e6 | inactive
LeuRS-m | DRSC08595 | 1.40e6 | 1.48e6 | 1.35e6 | 1.30e6 | inactive
CG15236 | DRSC04970 | 1.59e6 | 1.69e6 | 1.29e6 | 1.41e6 | inactive
Npc2g | DRSC14296 | 1.55e6 | 1.60e6 | 1.03e6 | 1.20e6 | inactive
CG4646 | DRSC06876 | 1.47e6 | 1.51e6 | 1.34e6 | 1.41e6 | inactive
tefu | DRSC16060 | 1.42e6 | 1.49e6 | 9.38e5 | 1.12e6 | inactive
Atac2 | DRSC02053 | 1.34e6 | 1.43e6 | 1.02e6 | 1.13e6 | inactive
SoYb | DRSC02901 | 1.43e6 | 1.51e6 | 1.12e6 | 1.26e6 | inactive
uzip | DRSC04722 | 1.41e6 | 1.47e6 | 1.07e6 | 1.08e6 | inactive
Rnf146 | DRSC11045 | 1.70e6 | 1.74e6 | 1.35e6 | 1.48e6 | inactive
Ctns | DRSC15175 | 1.60e6 | 1.48e6 | 1.01e6 | 1.12e6 | inactive
DCTN2-p50 | DRSC07132 | 1.32e6 | 1.39e6 | 1.17e6 | 1.24e6 | inactive
Prp5 | DRSC19975 | 1.73e6 | 1.62e6 | 1.04e6 | 1.11e6 | inactive
Pgant7 | DRSC19991 | 1.51e6 | 1.53e6 | 1.12e6 | 1.26e6 | inactive
Corp | DRSC17771 | 5.76e5 | – | 9.25e5 | – | inactive
Gr94a | DRSC13597 | 1.57e6 | 1.53e6 | 1.08e6 | 1.24e6 | inactive
CG10301 | DRSC14226 | 1.57e6 | 1.55e6 | 9.98e5 | 1.09e6 | inactive

9 entries from above in another layout:
{"gene knocked down": "Atac2", "DRSC id": "DRSC02053", "Kc cell number, rep 1": 1.34e6, "Kc cell number, rep 2": 1.43e6, "S2R+ cell number, rep 1": 1.02e6, "S2R+ cell number, rep 2": 1.13e6, "Outcome": "inactive"}
{"gene knocked down": "SoYb", "DRSC id": "DRSC02901", "Kc cell number, rep 1": 1.43e6, "Kc cell number, rep 2": 1.51e6, "S2R+ cell number, rep 1": 1.12e6, "S2R+ cell number, rep 2": 1.26e6, "Outcome": "inactive"}
{"gene knocked down": "uzip", "DRSC id": "DRSC04722", "Kc cell number, rep 1": 1.41e6, "Kc cell number, rep 2": 1.47e6, "S2R+ cell number, rep 1": 1.07e6, "S2R+ cell number, rep 2": 1.08e6, "Outcome": "inactive"}
{"gene knocked down": "Rnf146", "DRSC id": "DRSC11045", "Kc cell number, rep 1": 1.70e6, "Kc cell number, rep 2": 1.74e6, "S2R+ cell number, rep 1": 1.35e6, "S2R+ cell number, rep 2": 1.48e6, "Outcome": "inactive"}
{"gene knocked down": "Ctns", "DRSC id": "DRSC15175", "Kc cell number, rep 1": 1.60e6, "Kc cell number, rep 2": 1.48e6, "S2R+ cell number, rep 1": 1.01e6, "S2R+ cell number, rep 2": 1.12e6, "Outcome": "inactive"}
{"gene knocked down": "DCTN2-p50", "DRSC id": "DRSC07132", "Kc cell number, rep 1": 1.32e6, "Kc cell number, rep 2": 1.39e6, "S2R+ cell number, rep 1": 1.17e6, "S2R+ cell number, rep 2": 1.24e6, "Outcome": "inactive"}
{"gene knocked down": "Prp5", "DRSC id": "DRSC19975", "Kc cell number, rep 1": 1.73e6, "Kc cell number, rep 2": 1.62e6, "S2R+ cell number, rep 1": 1.04e6, "S2R+ cell number, rep 2": 1.11e6, "Outcome": "inactive"}
{"gene knocked down": "Pgant7", "DRSC id": "DRSC19991", "Kc cell number, rep 1": 1.51e6, "Kc cell number, rep 2": 1.53e6, "S2R+ cell number, rep 1": 1.12e6, "S2R+ cell number, rep 2": 1.26e6, "Outcome": "inactive"}
{"gene knocked down": "Corp", "DRSC id": "DRSC17771", "Kc cell number, rep 1": 5.76e5, "S2R+ cell number, rep 1": 9.25e5, "Outcome": "inactive"}

The listing continues.
gene knocked down | DRSC id | Kc cell number, rep 1 | Kc cell number, rep 2 | S2R+ cell number, rep 1 | S2R+ cell number, rep 2 | Outcome
Alg-2 | DRSC07799 | 1.54e6 | 1.17e6 | 1.02e6 | 1.19e6 | inactive
RhoGAPp190 | DRSC20097 | 1.66e6 | 1.67e6 | 1.06e6 | 1.17e6 | inactive
RhoGAPp190 | DRSC20099 | 1.47e6 | 1.53e6 | 1.03e6 | 1.18e6 | inactive
CG8854 | DRSC07288 | 1.33e6 | 1.35e6 | 1.14e6 | 1.16e6 | inactive
CG8180 | DRSC07092 | 1.35e6 | 1.39e6 | 1.03e6 | 1.05e6 | inactive
CG8180 | DRSC07093 | 1.59e6 | 1.70e6 | 1.38e6 | 1.56e6 | inactive
CG10137 | DRSC02014 | 1.17e6 | 1.32e6 | 1.16e6 | 1.20e6 | inactive
CG10137 | DRSC02015 | 1.54e6 | 1.67e6 | 1.31e6 | 4.28e5 | inactive
ppk11 | DRSC02737 | 1.53e6 | 1.59e6 | 1.34e6 | 1.49e6 | inactive
CG7069 | DRSC16188 | 1.49e6 | 1.60e6 | 1.14e6 | 1.17e6 | inactive
Vti1b | DRSC16283 | 1.68e6 | 1.64e6 | 1.31e6 | 1.36e6 | inactive
Vti1b | DRSC16284 | 1.33e6 | 1.31e6 | 1.04e6 | 1.15e6 | inactive
Ufl1 | DRSC12527 | 1.64e6 | 1.68e6 | 1.33e6 | 1.44e6 | inactive
CG10031 | DRSC00286 | 1.61e6 | 1.54e6 | 1.24e6 | 1.31e6 | inactive
CG7810 | DRSC03072 | 1.33e6 | 1.38e6 | 7.52e5 | 8.62e5 | inactive
sa | DRSC11649 | 1.33e6 | 1.34e6 | 9.55e5 | 1.16e6 | inactive
CG7785 | DRSC16311 | 1.43e6 | 1.43e6 | 1.03e6 | 1.15e6 | inactive
CG3793 | DRSC01982 | 1.38e6 | 1.43e6 | 1.29e6 | 1.35e6 | inactive
Loxl1 | DRSC14303 | 1.54e6 | 1.59e6 | 1.04e6 | 1.11e6 | inactive
CG14835 | DRSC10205 | 1.50e6 | 1.39e6 | 1.19e6 | 1.26e6 | inactive
ppl | DRSC11899 | 1.69e6 | 1.67e6 | 1.37e6 | 1.46e6 | inactive
CG15005 | DRSC08459 | 1.46e6 | 1.33e6 | 1.14e6 | 1.33e6 | inactive
CG15553 | DRSC15091 | 1.71e6 | 1.76e6 | 1.09e6 | 1.27e6 | inactive
